In patent US4665224A, “Ester of (+) 6-methoxy-α-methyl-2-naphthalene acetic acid having mucosecretolytic, anti-inflammatory, analgesic, antipyretic activity, a process for its preparation and pharmaceutical compositions thereof” (priority 1984, dated 1987):

Legend:
in vivo = details: mouse, po
Description: Method for studying the lethal dose 50 (LD50) in the mouse after a single administration.
Groups of 10 Swiss albine, female, adult mice (20-22 grams of body weight) fasting from the evening preceding the test, are treated orally with varying doses of the test drup suspended into hydroxyethylcellulose (0.5% w/v.)
Thereafter, the animals are fed again.

[1] = Gastric tolerability, gastric ulcerogenesys by repeated drug administrations; set-up: species or system rat (Wistar albine, female); details: in vivo; rat, oral for 5 days, daily dose, fed rats; read-out: Ulcerogenic dose 50% (UD50 in mg/kg os.)
Description: Method of gastric ulcerogenesys by repeated drug administrations.
Fed female Wistar albine rats (140-160 g of initial body weight) are used.
The test drug is administered orally for 5 days. At the end of the experiment, the rat's stomach is withdrawn, it is dissected along the lesser curvature, washed and observed in order to disclose the presence of either gastric lesions or manifest submucosa hemorrhages.

`COc1ccc2cc([C@H](C)C(=O)O)ccc2c1` [(+)6-methoxy-α-methyl-2-naphthalene acetic acid, reference compound] showed an LD50 at 336 h (in vivo) of 885 mg/kg and a TD50 at 120 h [1] of 30 mg/kg.
